PubChem BioAssay AID652054 (National Center for Advancing Translational Sciences (NCATS), 2013)
Screen size: about 360,000 compounds; about 9,100 (2.5%) were called active. This list was built around the results that the source calls inconclusive (neither active nor inactive); the mix of calls is not that of the screen. No stated cut-off is given here; in the data, active means max response below about -50%; inconclusive means no clear call, values can overlap the other calls; inactive means above that.

Chains of the proteins cited; added tags and fusions are not shown.
UniProt P35462, whole entry, looked up: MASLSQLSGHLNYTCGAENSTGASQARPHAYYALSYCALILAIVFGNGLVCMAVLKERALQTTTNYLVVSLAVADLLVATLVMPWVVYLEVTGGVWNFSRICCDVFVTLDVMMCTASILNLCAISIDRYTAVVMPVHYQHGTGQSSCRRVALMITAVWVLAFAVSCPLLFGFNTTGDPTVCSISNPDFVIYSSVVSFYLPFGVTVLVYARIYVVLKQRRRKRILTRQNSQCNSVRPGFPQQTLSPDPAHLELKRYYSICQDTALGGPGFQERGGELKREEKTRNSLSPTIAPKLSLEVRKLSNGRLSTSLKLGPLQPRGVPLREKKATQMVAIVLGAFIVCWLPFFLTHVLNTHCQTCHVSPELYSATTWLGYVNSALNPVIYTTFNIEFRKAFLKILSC

These compounds were tested against D(3) dopamine receptor (Homo sapiens) (UniProt P35462) (assay: qHTS of D3 Dopamine Receptor Antagonist: qHTS). Details: D3R cells, DiscoveRx beta-arrestin luminescence, antagonist mode; hits give low values.
Procedure, shortened: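 Cells expressing the human receptor were seeded at 1500 cells/well, incubated overnight at 37 degrees C in 5% CO2, then exposed to library compounds with dopamine controls for 90 minutes at 37 degrees C before luminescent detection.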
On the % scale 0 is the no-effect control and ±100 the full control effect.

Max response, negative = inhibition, inactive:
CN(C)/C=C/C(=O)/C=C/c1ccc(Cl)cc1 -13.2%, O=CN1CCN(C(=O)c2cc3cc(Cl)ccc3[nH]2)CC1 -20.7%, CC1CCCN(CC(O)COCc2ccccc2)C1 (stereo not given) -0.0789%, c1ccc(-c2cnnc(N3CCCCC3)n2)cc1 -13%, Cc1cccc(NC(=O)c2ccc(N3CCCCC3)c([N+](=O)[O-])c2)n1 26.2%, Cc1ccc(/C=C/C(=O)Nc2sc3c(c2C#N)CCCC3)o1 -16.1%, CCOC(=O)C1CC(c2ccccc2)=NN1c1ccccc1 (stereo not given) -0.257%, Clc1cccc(-c2ccc(C=Nc3ccc(N4CCOCC4)cc3)o2)c1Cl 21.8%, CCN(CC)c1ccc(/C=N/N=C(N)N)c(O)c1 -26.7%, CCOc1ccc(C(C)=O)cc1N1C(=O)C2C(C1=O)C1C=CC2C12CC2 (stereo not given) -8.28%, O=C(Cn1cncn1)c1ccccc1 0.505%, O=C(NCc1ccc2c(c1)OCO2)c1ccc(Cl)c(S(=O)(=O)NCc2ccccc2)c1 4.2%, CCCCCCCCCc1nc2sc3c(c2c(=O)n1NC(=O)c1ccccc1[N+](=O)[O-])CC(C)(C)OC3 5.2%, CCOc1cc(CNc2ncc(-c3ccc(OC)cc3)n2C)ccc1O -13.5%

Max response, negative = inhibition, active:
COc1ccccc1NS(=O)(=O)c1cc([N+](=O)[O-])ccc1N/N=C/c1c(C)[nH]c2ccccc12 -52.2%, CCn1c(SCC(=O)Nc2ccccc2F)nnc1-c1ccoc1C -54.7%, CN(c1ccc(C(=O)N2CCOCC2)cc1[N+](=O)[O-])C1CCCCC1 -60.3%, CCOC(=O)N1CCC(NCCNC(=O)c2ccc(F)c(F)c2)CC1 -99.3%, COc1ccc(NC(=O)C2Cc3c(-c4cccc(NC(C)=O)c4)ccnc3O2)cc1 (stereo not given) -57.7%, O=C(OCc1nnc(-c2ccccc2)o1)c1ccc(S(=O)(=O)NCc2ccco2)cc1 -78.3%, Cc1ccc(NC(=O)Cn2nc(C)c([N+](=O)[O-])c2C)cc1Cl -55.3%, CC(C)C[C@@H](CN)NC(=O)c1nc[nH]c1C(=O)N[C@@H](Cc1c[nH]c2ccccc12)C(=O)CNC[C@H](C)NC(=O)c1nc[nH]c1C(=O)N[C@@H](CC(=O)O)C(=O)O -53.4%, Cc1ccc(C(=O)C2CCN(CC(=O)NCc3ccc(F)cc3)CC2)cc1 -93.1%, CN(C)CCOc1ccccc1Cc1ccccc1 -74.5%, COc1ccc(C(=O)NCC(c2ccco2)N(C)C)cc1S(=O)(=O)NCc1ccc(Cl)cc1 (stereo not given) -96.5%

Max response, negative = inhibition, inconclusive:
COc1ccccc1NC(=O)CSc1nc2ncccc2[nH]1 -48.1%, CCCS(=O)(=O)NC(=O)C1(C)CCN(C(=O)c2ccc(F)c(C)c2)C1 (stereo not given) -35.7%, O=C(/C=C/c1cccc(Br)c1)c1ccc2c(c1)OCO2 -42.8%, CCOC(=O)c1c(NC(=O)CSc2nccc(=O)[nH]2)sc(C)c1C -37.1%, CC(C)(C)c1ccc(C(=O)Nc2cccc([N+](=O)[O-])c2)cc1 -30.1%, COc1ccc(-c2oc(NC(=O)CCl)c(C#N)c2-c2ccc(OC)cc2)cc1 -40.7%, COCCNC(=O)C1(C)CCCN(Cc2csc3ccccc23)C1 (stereo not given) -40.2%, CC(=O)c1cccc(NC(=O)CCS(=O)(=O)c2cccc3nonc23)c1 -30.3%, COc1cccc(C(=O)NC(=S)N2CCN(c3ccc(C(F)(F)F)cc3[N+](=O)[O-])CC2)c1 -34.2%, CCc1c(O)nc(SCC(=O)Nc2ccc3c(c2)CCC3)[nH]c1=O -39.8%, COc1cccc(NC(=O)Cc2cn(C)c3ccccc23)c1 -41.5%, Cc1ccc(C2Nc3ccccc3NC3=C2C(=O)CC(C)(C)C3)c(O)c1 (stereo not given) -35.6%, CCOC(=O)c1c(C)nc2c(c1-c1cc(OC)ccc1OC)C(=O)CC(C)(C)C2 -31%, CC(C)c1ccc(NC(=O)N2CCc3ccccc3C2)cc1 -33.2%, CCOC(=O)C(NC(C)=O)C(OC(C)=O)c1cccc([N+](=O)[O-])c1 (stereo not given) -30.7%, c1ccc2c(CN3CCCCC3)csc2c1 -30.4%, CCOCCCNC(=O)C(NC(=O)c1cnccn1)c1ccc(OC)cc1 (stereo not given) -46.6%, O=C(CN1CCCCC1)Nc1cccc(-n2cnnn2)c1 -36.8%, O=C(NNC(=S)Nc1ccc(Cl)cc1Cl)c1ccc(N2CCOCC2)c([N+](=O)[O-])c1 -30.6%, Cc1cccc(/C=C/c2onc(C)c2[N+](=O)[O-])n1 -44.5%, COC(=O)N1C(=O)[C@](CC(C)C)(c2ccccc2)N1C(=O)OC -37%, CN(C)C(=O)CCc1ccc2c3c([nH]c2c1)[C@]1(C)[C@@H](C(=O)N2CCCCC2)C[C@H](CC(=O)NCc2cccc(C(F)(F)F)c2)C(=O)N1CC3 -42.6%, CCOc1ccc(S(=O)(=O)NCCC(=O)NNC(=O)c2ccc(F)cc2)cc1 -45.3%, O=C(CNS(=O)(=O)c1ccc(Br)cc1Cl)OCC(=O)N1CCCC1=O -33.4%, O=c1c2ccccc2c(-c2ccc(Cl)cc2)nn1-c1ccccc1 -36.6%, CC1CN(c2nc3ccccc3nc2C(C#N)C(=O)NCc2ccc3c(c2)OCO3)CC(C)O1 (stereo not given) -42.7%, O=C(OC1CCOC1=O)c1ccc(S(=O)(=O)N2CCCCCC2)cc1 (stereo not given) -36.3%, Cc1ccc(O)c(NC(=S)NC(=O)c2ccc(-c3ccc(Cl)cc3)o2)c1 -44.7%, CN(C)CCCOc1ccc(-c2cccc3nncn23)cn1 -36.6%, CCOC(=O)C1CCCN(C/C(O)=C(\C#N)c2nc(-c3ccccc3)cs2)C1 (stereo not given) -30.3%
